Laboratory results taken from US12320798B2, “Diagnostic methods, therapeutic agents and uses thereof” (Metabolon, Inc., priority 2015, dated 2025).

Assay: Plasma 2-methylsuccinate in type 2 diabetic vs non-diabetic Japanese subjects
Type: in vivo, human
Details: age and sex-matched Japanese subjects

CC(CC(=O)O)C(=O)O (stereo not shown) [2-methylsuccinate]
plasma level, type 2 diabetic compared to non-diabetic subjects: 4.21 fold
